± gives the standard deviation. The list shows a part of the results, in another mix than the full data. Many of these values have a large error.
The sequences below were run on EfPiwi piRISC loaded with piRNA #1 (26 nt) (assay: pre-steady-state target cleavage rate (min^-1); guide: piRNA #1 5'p-UGAGGUAGUAGGUUGUAUAGUAUCCA; MIWI and MILI are mouse PIWI proteins and EfPiwi is from a freshwater sponge; tags in brackets are library labels; higher = faster piRNA-guided slicing of the target). Details: auxiliary factor: 500 nM Ephydatia muelleri Gtsf1.
Procedure, shortened: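 A transcribed, DNA-blocked target RNA library (0.1 nM) and 1 nM active affinity-purified piRISC bearing one synthetic guide were incubated in HEPES–potassium acetate buffer at 33 °C for 0–8 or 0–960 min, either with or without 500 nM GTSF1 partner protein. Uncleaved targets were sequenced, normalised to depth and to weakly complementary targets, and pooled over three trials, with k3 capped at 0.0001 min^-1. The pre-steady-state cleavage rate was derived with a burst-and-steady-state fit.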

Sequence | pre-steady-state target cleavage rate
GGAGACCUAACUAUACAACCUACUUGCUCA | 0.00145 ± 0.0054
GGAGAGGAUACUAUACUACCUACUACCACA | 0.00174 ± 0.002
GGAGACCUAACUAUACUACCUACUUCCUCA | 0.00112 ± 0.0049
GGAGACGAUACUAUACAACCUACGUACCUCA | 0.00418 ± 0.0019
GGAGACGUUACUAUACAAGCUACUACCUCA | 0.00435 ± 0.002
GGAGACCUAUGAAUACAAGCAACUACCUCA | 0.000173 ± 0.022
GGAGAGGAAUACUAUACAACCUACUACCUCA | 0.0974 ± 0.034
GGAGACCUAUCUAUGACAACCUACUACCUCA | 0.00594 ± 0.0037
GGAGAGGAUACAAUACAAGCUACUACCUCA | 0.0036 ± 0.0019
GGAGACCUAUGUUUACAACCUAGUACCUCA | 0.00204 ± 0.0034
GGAGUGGGAUACUAUACAACCUACUACCUCA | 0.143 ± 0.046
GGAGACCUAACUAUACUACCUACUACCUGA | 0.00244 ± 0.0037
GGAGACCAAACUAUACAACCUACUACCUCA | 0.0177 ± 0.0063
GGAGACGAUACAAUACAACCUACAACCUCA | 0.00274 ± 0.0027
GGAGACCAUAGUAUACAACCUUCUACCUCA | 0.00207 ± 0.0035
GGAGAGGAUACUACUACAACCUACUACCUCA | 0.00619 ± 0.0042

Part of the list above, with tabs.
Sequence	pre-steady-state target cleavage rate
GGAGAGGAUACUAUACUACCUACUACCACA	0.00174 ± 0.002
GGAGACGAUACUAUACAACCUACGUACCUCA	0.00418 ± 0.0019
GGAGACCAAACUAUACAACCUACUACCUCA	0.0177 ± 0.0063
GGAGACCAUAGUAUACAACCUUCUACCUCA	0.00207 ± 0.0035

Source: the supplement of paper PMC10338343
